PubChem BioAssay AID602196 – INSERM | 2012
Screen: 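Modifiers of cisplatin sensitivity in A549 cells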. Cells: human A549 lung cancer cells. Reagent: siRNA pair against human genes. Duration: 48 h transfection before cisplatin; time from cisplatin to read-out not stated. Challenge: cisplatin at a dose killing half of control-siRNA cells; exact dose and duration not given. Measured: 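Shift in cisplatin death relative to control siRNA, from -50 (all cells die) to +50 (no cells die); siRNAs harmful on their own scored 0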. Direction: two-siRNA summed score (-2 to +2): higher = both siRNAs protect from cisplatin killing; -2 means both sensitise; mean protection from cisplatin (shift in death): higher = protection from cisplatin killing. Call rule: 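siRNAs harmful alone (LDH or WST-1) get 0; others get +1 for less and -1 for more cisplatin killing; genes are active when the two siRNAs give the same sign, summing to ±2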. Calls: active = both siRNAs shift cisplatin killing the same way; inactive = no consistent shift, or siRNA harmful alone.
In all, the deposit lists about 23,000 reagents; this is a part drawn at random. 455 of them (2%) count as active. 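Active includes both protection and sensitisation; some change values fall well beyond the stated -50 to +50 range.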 Further read-outs or replicates are left out here. Not stated in the record: the amount of reagent.

SUMO2 (small ubiquitin like modifier 2): two-siRNA summed score (-2 to +2) = 0; mean protection from cisplatin (shift in death) (%) = -2.4; Outcome = inactive
VSIG1 (V-set and immunoglobulin domain containing 1): two-siRNA summed score (-2 to +2) = 1; mean protection from cisplatin (shift in death) (%) = 14.5; Outcome = inactive
KLHDC8B (kelch domain containing 8B): two-siRNA summed score (-2 to +2) = 1; mean protection from cisplatin (shift in death) (%) = 4.7; Outcome = inactive
TNFSF12 (TNF superfamily member 12): two-siRNA summed score (-2 to +2) = 0; mean protection from cisplatin (shift in death) (%) = -4; Outcome = inactive
RAB4B (RAB4B, member RAS oncogene family): two-siRNA summed score (-2 to +2) = -1; mean protection from cisplatin (shift in death) (%) = -21.4; Outcome = inactive
H2BC5 (H2B clustered histone 5): two-siRNA summed score (-2 to +2) = 0; mean protection from cisplatin (shift in death) (%) = 3.7; Outcome = inactive
OR8K1 (olfactory receptor family 8 subfamily K member 1): two-siRNA summed score (-2 to +2) = 0; mean protection from cisplatin (shift in death) (%) = 1.9; Outcome = inactive
FOXO3 (forkhead box O3): two-siRNA summed score (-2 to +2) = 0; mean protection from cisplatin (shift in death) (%) = 0.2; Outcome = inactive
CHEK2 (checkpoint kinase 2): two-siRNA summed score (-2 to +2) = 1; mean protection from cisplatin (shift in death) (%) = 21.8; Outcome = inactive
FLNC (filamin C): two-siRNA summed score (-2 to +2) = -1; mean protection from cisplatin (shift in death) (%) = -9.6; Outcome = inactive
IMMT (inner membrane mitochondrial protein): two-siRNA summed score (-2 to +2) = 0; mean protection from cisplatin (shift in death) (%) = 3.1; Outcome = inactive
TSPYL6 (TSPY like 6): two-siRNA summed score (-2 to +2) = 0; mean protection from cisplatin (shift in death) (%) = 1.3; Outcome = inactive
